{"source": "patent US20210369854A1", "binders": {"B1": {"name": "anti-CD5 antibody 5D7 hIgG1 (humanized version of murine antibody 5D7) (antibody, V domains shown)", "VH": "QVTLKESGPVLVKPTETLTLTCTFSGFSLSTSGMGVGWIRQAPGKGLEWVAHIWWDDDVYYNPSLKSRLTITKDASKDQVSLKLSSVTAADTAVYYCVRRRATGTGFDYWGQGTLVTVSS", "VL": "NIVMTQSPSSLSASVGDRVTITCQASQDVGTAVAWYQQKPDQSPKLLIYWTSTRHTGVPDRFTGSGSGTDFTLTISSLQPEDIATYFCHQYNSYNTFGSGTKLEIK"}}, "target": "human CD5 on cells (MOLT-4 human T lymphoblast cell line; primary human T-cells) (human)", "assay": "flow cytometry on primary human T-cells, antibody titration, fluorophore-conjugated (AF488) secondary anti-IgG, MFI", "note": "No constants are given. Whether binding was seen depends on the method and setting. Binding can be weak; no strength is given."}
{"binder": "B1", "values": [{"measurement": "binding", "result": "binds"}]}
